Literature values in US7396524B2, “Methods for screening compounds for proarrhythmic risk and antiarrhythmic efficacy” (Main Line Health Heart Center, priority 2005, dated 2008).

Settings: humans; cited from earlier work

**Q.** With `CCCCc1oc2ccccc2c1C(=O)c1cc(I)c(OCCN(CC)CC)c(I)c1` [amiodarone] as the compound, how does the QT prolongation read?
**A.** significantly prolongs the QT interval
